The numbers were not newly measured in patent US11737985B2 (priority 2013, dated 2023), which cites them from elsewhere.

Each structure is given as a SMILES string.

By IC50 is commonly meant the concentration needed to halve the response being measured.

The target in data set [1] is T1, hNKCC1a (Homo sapiens, UniProt P55011).
T1 sequence (P55011 1-1212): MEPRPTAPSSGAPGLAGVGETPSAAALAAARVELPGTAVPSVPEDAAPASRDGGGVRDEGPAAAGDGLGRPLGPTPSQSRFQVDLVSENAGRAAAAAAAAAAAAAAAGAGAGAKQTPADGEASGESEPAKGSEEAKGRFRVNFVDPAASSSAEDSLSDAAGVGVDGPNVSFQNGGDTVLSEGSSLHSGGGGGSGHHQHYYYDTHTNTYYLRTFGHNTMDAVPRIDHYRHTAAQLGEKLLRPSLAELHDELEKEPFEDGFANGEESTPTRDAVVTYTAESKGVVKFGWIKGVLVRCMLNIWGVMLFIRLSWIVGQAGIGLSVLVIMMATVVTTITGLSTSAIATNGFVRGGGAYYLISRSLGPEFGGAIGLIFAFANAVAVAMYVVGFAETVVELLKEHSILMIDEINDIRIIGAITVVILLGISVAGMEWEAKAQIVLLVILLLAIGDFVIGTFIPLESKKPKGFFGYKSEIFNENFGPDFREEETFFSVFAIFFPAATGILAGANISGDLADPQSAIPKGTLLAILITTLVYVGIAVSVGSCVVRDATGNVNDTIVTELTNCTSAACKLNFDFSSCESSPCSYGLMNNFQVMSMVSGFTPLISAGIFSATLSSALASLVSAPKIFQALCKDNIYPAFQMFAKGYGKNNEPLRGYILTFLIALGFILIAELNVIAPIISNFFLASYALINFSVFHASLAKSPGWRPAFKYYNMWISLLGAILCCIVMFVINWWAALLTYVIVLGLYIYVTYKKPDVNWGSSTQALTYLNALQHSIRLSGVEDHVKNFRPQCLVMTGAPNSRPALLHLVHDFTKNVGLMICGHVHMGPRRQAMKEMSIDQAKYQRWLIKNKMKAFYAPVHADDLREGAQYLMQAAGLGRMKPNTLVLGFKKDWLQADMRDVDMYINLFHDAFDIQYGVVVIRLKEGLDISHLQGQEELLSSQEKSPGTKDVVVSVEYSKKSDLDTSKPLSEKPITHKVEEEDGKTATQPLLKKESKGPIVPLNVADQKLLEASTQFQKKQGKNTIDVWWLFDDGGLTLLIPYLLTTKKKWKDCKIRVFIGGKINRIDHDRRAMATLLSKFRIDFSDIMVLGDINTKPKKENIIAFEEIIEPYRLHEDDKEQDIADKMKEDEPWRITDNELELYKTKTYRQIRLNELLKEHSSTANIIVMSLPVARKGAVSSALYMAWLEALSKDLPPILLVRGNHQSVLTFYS
Particulars: cited from earlier work.

Data set [2] concerns the target T2, hNKCC1b (Homo sapiens, UniProt P55011).
T2 sequence (P55011 1-1196 isoform P55011-3): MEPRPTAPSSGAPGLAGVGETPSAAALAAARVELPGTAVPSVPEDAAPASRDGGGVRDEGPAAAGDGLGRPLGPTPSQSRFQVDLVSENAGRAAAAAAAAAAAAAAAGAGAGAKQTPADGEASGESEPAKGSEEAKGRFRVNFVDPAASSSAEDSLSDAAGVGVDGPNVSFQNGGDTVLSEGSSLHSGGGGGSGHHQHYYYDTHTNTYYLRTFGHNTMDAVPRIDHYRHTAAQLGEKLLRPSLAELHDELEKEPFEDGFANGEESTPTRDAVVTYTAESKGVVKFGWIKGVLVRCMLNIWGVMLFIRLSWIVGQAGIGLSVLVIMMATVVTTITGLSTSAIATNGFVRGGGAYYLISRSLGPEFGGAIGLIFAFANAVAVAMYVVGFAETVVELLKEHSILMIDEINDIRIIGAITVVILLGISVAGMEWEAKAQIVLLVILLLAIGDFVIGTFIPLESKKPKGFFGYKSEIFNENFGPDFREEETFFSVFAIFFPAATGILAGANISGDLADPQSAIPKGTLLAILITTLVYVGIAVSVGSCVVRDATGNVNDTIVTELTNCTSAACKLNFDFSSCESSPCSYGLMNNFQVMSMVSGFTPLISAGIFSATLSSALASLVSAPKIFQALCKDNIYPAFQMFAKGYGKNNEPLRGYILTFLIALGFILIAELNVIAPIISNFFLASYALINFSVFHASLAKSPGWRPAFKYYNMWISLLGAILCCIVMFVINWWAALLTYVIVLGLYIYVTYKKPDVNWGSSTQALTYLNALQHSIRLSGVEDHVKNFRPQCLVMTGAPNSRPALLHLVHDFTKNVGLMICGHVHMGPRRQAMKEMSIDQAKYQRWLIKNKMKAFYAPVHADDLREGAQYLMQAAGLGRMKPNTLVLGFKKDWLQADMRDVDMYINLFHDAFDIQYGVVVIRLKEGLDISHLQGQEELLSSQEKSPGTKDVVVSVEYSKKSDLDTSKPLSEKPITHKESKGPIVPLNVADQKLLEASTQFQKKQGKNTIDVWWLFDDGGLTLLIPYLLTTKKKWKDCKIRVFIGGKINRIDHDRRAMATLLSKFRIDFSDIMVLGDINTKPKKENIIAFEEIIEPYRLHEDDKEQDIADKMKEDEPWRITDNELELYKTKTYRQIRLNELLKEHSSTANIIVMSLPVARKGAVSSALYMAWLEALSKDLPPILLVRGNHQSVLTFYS
The conditions noted are these: cited from earlier work.

Take `NS(=O)(=O)c1cc(C(=O)O)c(NCc2ccco2)cc1Cl` [Furosemide]: the half-inhibitory concentration (IC50) in data set [1] is 5.2 µM; in data set [2] it was 5.8 µM.
